Laboratory results from PubChem BioAssay AID2685 (National Center for Advancing Translational Sciences (NCATS), 2010).
This is one part of the list. Shown are side measurements of this screen, not its main read-out; they come without a call. The list favours compounds with an active or inconclusive main result. Potencies come from curve fits of mixed quality, noted in brackets.

Test: qHTS Assay for Lipid Storage Modulators in Drosophila S3 Cells;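 on cell number change: cells counted by Cell Tracker Red CMTPX staining in the red channel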
Conditions: BODIPY lipid droplet fluorescence, 18-24 h; for cell number change: measured here: cell count max response, cells fed with added oleic acid
In short: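 Drosophila S3 cells got compounds at several concentrations plus oleic acid (400 uM solution). Laser-scanning cytometry with 488 nm excitation read lipid droplets at 500-530 nm and cells at 575-640 nm. Percent activity was relative to 20 uM Triacsin C.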

[1] = measured here: cell number channel AC50, cells fed with added oleic acid
[2] = measured here: lipid fluorescence (Fed channel) AC50, cells fed with added oleic acid

Structure (SMILES)	cell number change [%]	AC50 [1]	AC50 [2]
CCc1nc(C)cn1S(=O)(=O)c1cc(Br)ccc1OC	-56.6	18.4 µM [falling, partial curve]	20.6 µM [falling, partial curve]
Cc1sc2ncn(CC(=O)NCCCC(=O)N3CCN(c4ccccc4F)CC3)c(=O)c2c1C	13.8	–	–
Cc1ccc(/C=N/NC(=O)C[n+]2ccccc2)o1	-45.8	–	0.116 µM [falling, full curve, poor fit]
COc1ccccc1NC(=O)c1ccc2c(c1)C(=O)N(Cc1ccco1)C2=O	29.5	0.461 µM [rising, full curve, poor fit]	–
CCOC(=O)c1c(C)nn(-c2ccc(NC(=O)c3cccs3)cc2)c1C	-36.2	1.64 µM [falling, partial curve]	1.64 µM [falling, full curve]
O=C1Cn2c(nc3ccccc32)N1c1ccccc1F	-17.3	–	0.82 µM [falling, full curve]
Cc1cc(-n2c(=O)c(C#N)cc3c(=O)n4cccc(C)c4nc32)no1	14.3	–	3.26 µM [rising, partial curve]
Cc1ccc([N+](=O)[O-])cc1NC(=O)c1ccc2c(c1)OCO2	-0.857	–	–
COc1ccc(-n2c(SCC(=O)Nc3ccc(C)cc3)nc(O)c(Cc3ccccc3)c2=O)cc1	-13	–	–
Cc1cccc(NC(=O)C2CCN(c3nccc(C)n3)CC2)c1	-10.8	–	0.116 µM [rising, full curve, poor fit]
N/C(Cc1cccs1)=N\OC(=O)COc1ccccc1	1.3	–	5.17 µM [rising, full curve, poor fit]
CCc1cc(C(=O)Cc2cnn(-c3ccccc3)c2)c(O)cc1O	-67.9	20.6 µM [falling, partial curve]	8.2 µM [falling, partial curve, poor fit]
COc1ccc(/C(C)=N/NC(=O)c2nnn(-c3nonc3N)c2CN(C)c2ccccc2)cc1	28.6	–	0.058 µM [rising, full curve, poor fit]
O=C(NC1CCCCC1)C1CCC(=O)N(Cc2cccc(C(F)(F)F)c2)C1 (stereo unspecified)	37.1	–	6.31 µM [rising, single point]
C/C(=N/NC(=O)CSc1ccccn1)c1ccc([N+](=O)[O-])cc1	–	1.3 µM [rising, partial curve]	0.13 µM [rising, partial curve, poor fit]
CC(C)(C)C(=O)N1CCN(c2ccc(NC(=O)c3ccc4c(c3)OCCO4)cc2)CC1	–	–	6.51 µM [falling, single point]
CCN(CC)S(=O)(=O)c1ccc(OC)c(NC(=O)CCS(=O)(=O)Cc2ccccc2)c1	14.2	–	0.461 µM [rising, full curve, poor fit]
CCCn1c(=NC(=O)c2ccc3c(c2)OCO3)c(C#N)cc2c(=O)n3cccc(C)c3nc21	19.9	–	0.103 µM [rising, full curve]
Cc1nc2c(C#N)cnn2c2c1CCNN2C	-57.8	–	–

Structure (SMILES)	cell number change [%]	AC50 [1]	AC50 [2]
CCOC(=O)c1sc2nc(SCC#N)n(CCCN3CCCC3=O)c(=O)c2c1C	–	5.8 µM [rising, single point]	0.517 µM [rising, full curve]
CC(C)(C)c1ccc(C2(C)NC(=O)NC2=O)cc1 (stereo unspecified)	15.8	–	29.1 µM [falling, single point]
O=Cc1cccc(Oc2ccc([N+](=O)[O-])cc2[N+](=O)[O-])c1	-41.7	–	5.8 µM [falling, full curve]
CCc1nc(N2CCOCC2)c(C#N)c2c1COC(C)(C)C2	-6.49	–	0.731 µM [rising, full curve, poor fit]
CCOC(=O)c1c(NC(=O)c2ccco2)sc(C(=O)N2CCCC2)c1C	73.7	1.3 µM [rising, full curve]	5.8 µM [rising, partial curve]
Cc1noc(/C=C/c2cccs2)c1S(=O)(=O)N1CCC(C(=O)NCCCN2CCC(C)CC2)CC1	0.856	–	0.82 µM [rising, single point]
COc1cc2[nH]c(=S)nc(NCc3ccc(Cl)cc3)c2cc1OC	–	–	0.366 µM [falling, full curve]
Cc1ccc(NC2=NC(c3ccc(F)cc3)n3c(nc(C)cc3=O)N2)cc1 (stereo unspecified)	17.4	–	14.6 µM [rising, single point]
O=C(CCCc1nc(-c2ccccc2Cl)no1)NC1CCCCC1	-4.3	–	–
O=C(NCc1ccccc1)c1ccccc1C(=O)c1ncc[nH]1	24.3	0.259 µM [rising, full curve, poor fit]	–
O=C(CCc1nnc(-c2ccccc2)o1)NCc1cc(F)ccc1F	4.88	–	6.51 µM [falling, single point]
O=C(O)CS/C(=C\c1ccc(F)cc1)c1nc2ccccc2s1	–	0.259 µM [falling, full curve]	–
CN(c1ccccc1)S(=O)(=O)c1cccc(NC(=O)CC(C)(C)C)c1	17.6	–	6.51 µM [rising, single point]
CCOC(=O)c1c(-c2ccccc2)nnn1-c1nc(OC)nc(N2CCOCC2)n1	21.7	–	3.26 µM [rising, full curve]
O=C(Nc1nnc(COc2ccc(Cl)cc2)s1)c1ccco1	12.9	–	–
COC(=O)NC(=S)Nc1ccc(Oc2ccc(Cl)cc2Cl)c(Cl)c1	-38.9	25.9 µM [falling, partial curve, poor fit]	18.4 µM [falling, partial curve]
CCCC(C(=O)NCC1CCCO1)N(Cc1ccccc1)C(=O)CNS(=O)(=O)c1ccccc1 (stereo unspecified)	9.46	–	0.13 µM [falling, full curve, poor fit]
Cc1cc(C)c(NC(=O)CN(C)CC(=O)N(C)CC(=O)Nc2c(Cl)cccc2Cl)c(C)c1	-7.79	–	0.13 µM [falling, full curve, poor fit]
CN1CCN(C(=S)NC(=O)c2ccc(Cl)cc2)CC1	–	–	6.51 µM [rising, single point]

Look-ups from the list.
AC50 [2], `CN1CCN(C(=S)NC(=O)c2ccc(Cl)cc2)CC1` reads 6.51 µM [rising, single point]
AC50 [2], `COc1cc2[nH]c(=S)nc(NCc3ccc(Cl)cc3)c2cc1OC` reads 0.366 µM [falling, full curve]
